# From patent US6562829B1, “Treatment of hepatic cirrhosis” (Hadasit Medical Research Services & Development Co., Ltd., priority 1997, dated 2003)
# Legend:
# [1] = tested on: TAA-induced liver cirrhosis; assay type: in vivo, rat
# Description: Male Sprague-Dawley rats were divided into three groups. Two groups were injected intraperitoneally with TAA twice weekly for 12 weeks, at a dose of 200 mg/kg body (Muller, A. et al., Exp. Pathol., 34:229-236, 1988; Hori, N. et al., Dig. Dis. Sci., 38:2195-2202, 1993). […] The other group of rats, control rats, was injected with saline. One group of TAA-treated rats and one control group were fed Halofuginone in the diet at a dose of 5 ppm.
# For this experiment, rats in group 1 received only Halofuginone (n=4); rats in group 2 received TAA alone without Halofuginone (n=6); and rats in group 3 received TAA with Halofuginone (n=6). Groups 1and 3 received Halofuginone starting three days before the TAA injections were administered. At the end of the experimental period, the rats were sacrificed and the liver was removed and weighed.
# Liver samples were taken for histological examination. Briefly, the tissue samples were collected into phosphate-buffered saline (PBS) and fixed overnight in 4% paraformaldehyde in PBS at 4° C. Serial 5 μm sections were prepared after the samples had been dehydrated in graded ethanol solutions, cleared in chloroform and embedded in Paraplast. […]
# In addition, the livers were scored in a double-blind evaluation, on a scale of 0-4, for the appearance of fibrotic tissue.
# [2] = tested on: mild dimethylnitrosamine-induced fibrosis; assay: Mild dimethylnitrosamine-induced fibrosis in rat liver (Example 2); assay type: in vivo; details: Halofuginone to rats not given dimethylnitrosamine
# Description: The specific experimental method used was similar to that of Example 1, except that the dimethylnitrosamine-treated rats were only given 0.25% dimethylnitrosamine in saline, a much lower dose than that given in Example 1 above. Also, the duration of treatment was longer before the rats were sacrificed: 4 weeks as opposed to 3 weeks in Example 1.
# The expression of the collagen α1(I) gene was measured as described in Example 1 above. For hydroxyproline analysis, liver samples were hydrolyzed for 22 hours at 110° C. with 6 N HCl. Nitrogen was determined after Kjeldahl digestion by the spectrophotometric procedure using an autoanalyzer as described by Krom [M. D. Krom, Analyst, 105:305-16, 1980]. The collagen-unique amino acid hydroxyproline from the same hydrolysate was determined by amino acid analysis (Biotronik LC 5000, Germany) after post-column derivatization on a cation exchange column (BTC 2710, Biotronik). The results are expressed as the percentage of collagen in total liver proteins.
# [3] = tested on: dimethylnitrosamine-induced hepatic fibrosis; assay: Dimethylnitrosamine-induced severe liver fibrosis in rats (Example 1); assay type: in vivo; details: rats given Halofuginone alone
# Description: The experimental method was as follows. Male Sprague-Dawley rats were divided into four groups. Two groups were injected intraperitoneally with 1% dimethylnitrosamine in saline for three consecutive days per week for 3 weeks, at a dose of 1 ml/kg body weight. This dosage regimen will induce severe liver fibrosis. The other two groups of rats, control rats, were injected with saline. One group of dimethylnitrosamine-treated rats and one control group were fed Halofuginone in the diet at a dose of 5 mg/kg weight of diet, starting three days before the dimethylnitrosamine injections were administered. At the end of the experimental period, the rats were sacrificed and the liver was removed and weighed.
# Liver samples were taken for histological examination. Briefly, the tissue samples were collected into phosphate-buffered saline (PBS) and fixed overnight in 4% paraformaldehyde in PBS at 4° C. Serial 5 μm sections were prepared after the samples had been dehydrated in graded ethanol solutions, cleared in chloroform and embedded in Paraplast. Differential staining of collagenous and non-collagenous proteins was performed with 0.1% Sirius red and 0.1% fast green as a counter-stain in picric acid. This procedure stains collagen red [Gascon-Barre, M., et al., J. Histochem. Cytochem., 37:377-381, 1989].
# Liver samples were then hybridized with a probe for rat collagen α1(I) expression. […]
compound,measurement,setting,value
O=C(CC1NCCC[C@H]1O)Cn1cnc2cc(Br)c(Cl)cc2c1=O (stereo partly shown) [Halofuginone],collagen fibers in liver tissue (Sirius red staining),[1]; rats given Halofuginone alone,Almost no collagen fibers
same,double-blind liver fibrosis score,"[1]; scale of 0-4, control rats (group 1, received only Halofuginone)",0
same,liver hydroxyproline concentration,[2],did not cause any change
same,collagen fibers in liver tissue (Sirius red staining),[3],Almost no collagen fibers
